These are yes or no findings as the source states them, for the method shown. For some of these results: In cells and extracts the contact can be indirect. Some binding calls cover weakened binding; strength is not graded here. For some of these results: Tags and fused reporters may be left off the sequences shown. Blank lines part the entries; values can stand above or below the binder they belong to.
Tests used:
[1] = target: T1, GST‐β‐catenin fusion protein (human), P35222; test: pull-down; GST or β‐catenin‐GST fusion protein (20 µg) on GSH beads, 2 h at 4 °C; LIMK1/CDK5‐His‐tagged proteins (20 µg) added in IP lysis buffer, overnight at 4 °C; SDS‐PAGE and Western blot; both purified; conditions: remark: other sources report otherwise
T1 chain: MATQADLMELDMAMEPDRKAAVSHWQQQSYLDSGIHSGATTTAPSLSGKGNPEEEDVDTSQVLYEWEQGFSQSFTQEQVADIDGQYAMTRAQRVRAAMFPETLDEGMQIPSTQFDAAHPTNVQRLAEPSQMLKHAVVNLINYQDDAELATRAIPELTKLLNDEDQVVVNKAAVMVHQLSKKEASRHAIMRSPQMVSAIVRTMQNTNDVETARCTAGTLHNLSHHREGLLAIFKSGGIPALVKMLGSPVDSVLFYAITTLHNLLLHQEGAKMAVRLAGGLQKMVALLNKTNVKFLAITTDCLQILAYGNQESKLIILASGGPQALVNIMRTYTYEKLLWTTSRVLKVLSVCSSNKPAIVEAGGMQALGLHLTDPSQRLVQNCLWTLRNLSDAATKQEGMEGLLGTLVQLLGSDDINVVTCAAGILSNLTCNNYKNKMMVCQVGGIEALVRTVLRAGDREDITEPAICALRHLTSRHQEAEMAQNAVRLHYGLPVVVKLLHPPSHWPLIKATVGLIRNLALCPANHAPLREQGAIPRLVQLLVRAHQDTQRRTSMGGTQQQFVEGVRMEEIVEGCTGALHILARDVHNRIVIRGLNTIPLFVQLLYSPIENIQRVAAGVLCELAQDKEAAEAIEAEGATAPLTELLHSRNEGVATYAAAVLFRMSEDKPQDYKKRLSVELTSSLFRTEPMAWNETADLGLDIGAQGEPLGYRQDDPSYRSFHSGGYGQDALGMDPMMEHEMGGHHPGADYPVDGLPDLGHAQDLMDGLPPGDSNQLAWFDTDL

[2] = target: β‐catenin, wild type, in ESCC cells (human) (UniProt P35222); test: co-IP; lysates of transfected ESCC cells, precleared with IgG and protein A/G Sepharose beads; primary antibody overnight at 4 °C, protein A/G Sepharose beads 4 h, washed with IP lysis buffer, Western blot; for β‐catenin and NUP93 with ectopic LIMK1 or CDK5 (wild type or kinase-dead)
[3] = target: β‐catenin‐S191A, overexpressed in ESCC cells (human) (UniProt P35222); test: as above
[4] = target: LIM domain kinase 1 (LIMK1), wild type, overexpressed in ESCC cells (human), P53667; test: as above; conditions: remark: other sources report otherwise

binding [1]: binds
B1: LIMK1‐His‐tagged protein, P53667 1-647 (enzyme)
chain: MRLTLLCCTWREERMGEEGSELPVCASCGQRIYDGQYLQALNADWHADCFRCCDCSASLSHQYYEKDGQLFCKKDYWARYGESCHGCSEQITKGLVMVAGELKYHPECFICLTCGTFIGDGDTYTLVEHSKLYCGHCYYQTVVTPVIEQILPDSPGSHLPHTVTLVSIPASSHGKRGLSVSIDPPHGPPGCGTEHSHTVRVQGVDPGCMSPDVKNSIHVGDRILEINGTPIRNVPLDEIDLLIQETSRLLQLTLEHDPHDTLGHGLGPETSPLSSPAYTPSGEAGSSARQKPVLRSCSIDRSPGAGSLGSPASQRKDLGRSESLRVVCRPHRIFRPSDLIHGEVLGKGCFGQAIKVTHRETGEVMVMKELIRFDEETQRTFLKEVKVMRCLEHPNVLKFIGVLYKDKRLNFITEYIKGGTLRGIIKSMDSQYPWSQRVSFAKDIASGMAYLHSMNIIHRDLNSHNCLVRENKNVVVADFGLARLMVDEKTQPEGLRSLKKPDRKKRYTVVGNPYWMAPEMINGRSYDEKVDVFSFGIVLCEIIGRVNADPDYLPRTMDFGLNVRGFLDRYCPPNCPPSFFPITVRCCDLDPEKRPSFVKLEHWLETLRMHLAGHLPLGPQLEQLDRGFWETYRRGESGLPAHPEVPD

binding [2]: binds
binding [3]: binds
B2: nucleoporin 93 (NUP93) (protein, UniProt Q8N1F7 1-819)
chain: MDTEGFGELLQQAEQLAAETEGISELPHVERNLQEIQQAGERLRSRTLTRTSQETADVKASVLLGSRGLDISHISQRLESLSAATTFEPLEPVKDTDIQGFLKNEKDNALLSAIEESRKRTFGMAEEYHRESMLVEWEQVKQRILHTLLASGEDALDFTQESEPSYISDVGPPGRSSLDNIEMAYARQIYIYNEKIVNGHLQPNLVDLCASVAELDDKSISDMWTMVKQMTDVLLTPATDALKNRSSVEVRMEFVRQALAYLEQSYKNYTLVTVFGNLHQAQLGGVPGTYQLVRSFLNIKLPAPLPGLQDGEVEGHPVWALIYYCMRCGDLLAASQVVNRAQHQLGEFKTWFQEYMNSKDRRLSPATENKLRLHYRRALRNNTDPYKRAVYCIIGRCDVTDNQSEVADKTEDYLWLKLNQVCFDDDGTSSPQDRLTLSQFQKQLLEDYGESHFTVNQQPFLYFQVLFLTAQFEAAVAFLFRMERLRCHAVHVALVLFELKLLLKSSGQSAQLLSHEPGDPPCLRRLNFVRLLMLYTRKFESTDPREALQYFYFLRDEKDSQGENMFLRCVSELVIESREFDMILGKLENDGSRKPGVIDKFTSDTKPIINKVASVAENKGLFEEAAKLYDLAKNADKVLELMNKLLSPVVPQISAPQSNKERLKNMALSIAERYRAQGISANKFVDSTFYLLLDLITFFDEYHSGHIDRAFDIIERLKLVPLNQESVEERVAAFRNFSDEIRHNLSEVLLATMNILFTQFKRLKGTSPSSSSRPQRVIEDRDSQLRSQARTLITFAGMIPYRTSGDTNARLVQMEVLMN

binding [4]: binds
B3: β‐catenin, wild type, in ESCC cells, P35222 1-781 (protein)
chain: MATQADLMELDMAMEPDRKAAVSHWQQQSYLDSGIHSGATTTAPSLSGKGNPEEEDVDTSQVLYEWEQGFSQSFTQEQVADIDGQYAMTRAQRVRAAMFPETLDEGMQIPSTQFDAAHPTNVQRLAEPSQMLKHAVVNLINYQDDAELATRAIPELTKLLNDEDQVVVNKAAVMVHQLSKKEASRHAIMRSPQMVSAIVRTMQNTNDVETARCTAGTLHNLSHHREGLLAIFKSGGIPALVKMLGSPVDSVLFYAITTLHNLLLHQEGAKMAVRLAGGLQKMVALLNKTNVKFLAITTDCLQILAYGNQESKLIILASGGPQALVNIMRTYTYEKLLWTTSRVLKVLSVCSSNKPAIVEAGGMQALGLHLTDPSQRLVQNCLWTLRNLSDAATKQEGMEGLLGTLVQLLGSDDINVVTCAAGILSNLTCNNYKNKMMVCQVGGIEALVRTVLRAGDREDITEPAICALRHLTSRHQEAEMAQNAVRLHYGLPVVVKLLHPPSHWPLIKATVGLIRNLALCPANHAPLREQGAIPRLVQLLVRAHQDTQRRTSMGGTQQQFVEGVRMEEIVEGCTGALHILARDVHNRIVIRGLNTIPLFVQLLYSPIENIQRVAAGVLCELAQDKEAAEAIEAEGATAPLTELLHSRNEGVATYAAAVLFRMSEDKPQDYKKRLSVELTSSLFRTEPMAWNETADLGLDIGAQGEPLGYRQDDPSYRSFHSGGYGQDALGMDPMMEHEMGGHHPGADYPVDGLPDLGHAQDLMDGLPPGDSNQLAWFDTDL
